Binding data for 2 substances are collected here from PMC10743781.

These are yes or no findings as the source states them, for the method shown. In cells and extracts the contact can be indirect. For some of these results: Binding calls can cover weak binding; strength is not graded here. Sequences can lack the tags named with a protein.

Common to all, as to assay: pull-down; HEK293T cotransfected with GST or GST-BAG5 constructs and HA-Akt, HA-Erk, EGFP-Akt-KDD or EGFP-Hsp70; TNTE lysate, glutathione Sepharose 4B beads 2 h at 4 °C, blots with anti-HA or anti-GFP; for the Hsp70 experiment cells 12 h in serum-free media, then 20 μM MG132 for 4 h
Test [1] concerns the target T1, GST-BAG5 (full-length BAG5 fused to GST) (human) (UniProt Q9UL15).
T1 sequence: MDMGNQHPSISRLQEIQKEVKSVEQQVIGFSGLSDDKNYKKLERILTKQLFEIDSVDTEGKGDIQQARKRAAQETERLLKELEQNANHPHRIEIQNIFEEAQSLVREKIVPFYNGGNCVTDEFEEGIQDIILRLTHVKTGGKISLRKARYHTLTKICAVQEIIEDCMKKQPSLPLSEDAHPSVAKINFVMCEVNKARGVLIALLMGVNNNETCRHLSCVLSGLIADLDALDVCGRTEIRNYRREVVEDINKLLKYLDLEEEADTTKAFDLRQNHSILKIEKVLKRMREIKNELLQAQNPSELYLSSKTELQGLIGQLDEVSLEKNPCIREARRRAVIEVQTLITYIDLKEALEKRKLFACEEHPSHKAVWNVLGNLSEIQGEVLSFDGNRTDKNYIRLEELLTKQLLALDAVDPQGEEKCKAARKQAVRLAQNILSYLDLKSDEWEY

The target of test [2] is T2, GST-BAG5 M1-P181 (linker region extended to the amino terminus, with the first BAG domain) (human) (UniProt Q9UL15).
T2 sequence: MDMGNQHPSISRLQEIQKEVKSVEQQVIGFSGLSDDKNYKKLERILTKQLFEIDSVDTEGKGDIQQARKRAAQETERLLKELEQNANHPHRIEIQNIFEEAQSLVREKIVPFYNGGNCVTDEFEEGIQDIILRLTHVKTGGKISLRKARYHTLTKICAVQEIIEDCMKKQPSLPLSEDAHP

Test [3] deals with T3, GST-BAG5 N87-Y447 (linker region extended to the carboxyl terminus, with the last three BAG domains) (human) (UniProt Q9UL15).
T3 sequence: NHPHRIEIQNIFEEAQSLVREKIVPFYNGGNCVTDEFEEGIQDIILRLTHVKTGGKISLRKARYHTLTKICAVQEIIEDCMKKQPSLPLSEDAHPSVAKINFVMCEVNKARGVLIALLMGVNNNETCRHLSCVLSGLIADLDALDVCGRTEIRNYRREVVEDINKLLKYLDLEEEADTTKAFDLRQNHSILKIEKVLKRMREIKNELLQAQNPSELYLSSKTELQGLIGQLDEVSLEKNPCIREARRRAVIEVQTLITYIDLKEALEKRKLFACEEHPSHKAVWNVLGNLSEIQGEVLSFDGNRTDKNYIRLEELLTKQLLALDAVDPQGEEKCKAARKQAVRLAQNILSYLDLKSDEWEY

Test [4] concerns the target T4, GST-BAG5(N87-P181), BAG5 linker region fused to GST (human) (UniProt Q9UL15).
T4 sequence: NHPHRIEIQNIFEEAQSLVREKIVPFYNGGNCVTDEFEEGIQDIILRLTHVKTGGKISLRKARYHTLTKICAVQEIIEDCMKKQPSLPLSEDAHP

EGFP-Hsp70: the binding entry in test [1] was “binds”.

Consider HA-Erk (HA-tagged Erk) (enzyme), for which the binding entry in test [2], in test [3] and in test [4] was “no binding” in each case.
